Results reported in patent US20170145112A1 (Genentech, published 2017).
These are yes or no findings as the source states them, for the method shown. Some results given as binding are weak or reduced against the parent protein; the word gives no strength.

Chains of the proteins cited; added tags and fusions are not shown. Lines headed by an entry give the natural chain unless they say otherwise; changes in a name come on top.
UniProt P00746: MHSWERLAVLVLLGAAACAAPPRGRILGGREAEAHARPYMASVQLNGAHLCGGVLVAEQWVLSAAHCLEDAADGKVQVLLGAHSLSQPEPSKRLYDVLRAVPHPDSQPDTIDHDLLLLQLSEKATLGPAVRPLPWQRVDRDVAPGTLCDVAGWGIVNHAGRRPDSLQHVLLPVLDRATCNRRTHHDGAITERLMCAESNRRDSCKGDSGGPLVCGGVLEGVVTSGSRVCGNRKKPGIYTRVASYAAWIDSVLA

B1: hu20D12.v2.5 Fab (Fab, V domains shown)
VH: EVQLVQSGAEVKKPGASVKVSCKASGYTFTSYYMYWVRQAPGQGLEWIGEINPYSGGTNFNEKFKSRATLTVDTSTSTAYLELSSLRSEDTAVYYCAREGGFAYWGQGTLVTVSS
VL: DIQMTQSPSSLSASVGDRVTITCKASQNVDTDVAWFQQKPGKAPKGLIYSASSRYSGVPSRFSGSGSGTDFTLTISSLQPEDFATYYCQQYNNYPLTFGQGTKVEIKR
B2: hu20D12.v2.14 Fab (Fab, V domains shown)
VH: EVQLVQSGAEVKKPGASVKVSCKASGYTFTSYYMYWVRQAPGQGLEWIGEINPTSGETNFNEKFKSRATLTVDTSTSTAYLELSSLRSEDTAVYYCAREGGFAYWGQGTLVTVSS
VL: DIQMTQSPSSLSASVGDRVTITCKASQNVDTDVAWFQQKPGKAPKGLIRSASSRYSGVPSRFSGSGSGTDFTLTISSLQPEDFATYYCQQYNNYPLTFGQGTKVEIKR
B3: hu20D12.v2.13 Fab (Fab, V domains shown)
VH: EVQLVQSGAEVKKPGASVKVSCKASGYTFTSYYMYWVRQAPGQGLEWIGEINPTSGGTNFNEKFKSRATLTVDTSTSTAYLELSSLRSEDTAVYYCAREGGFAYWGQGTLVTVSS
VL: DIQMTQSPSSLSASVGDRVTITCKASQNVDTDVAWFQQKPGKAPKGLIRSASSRYSGVPSRFSGSGSGTDFTLTISSLQPEDFATYYCQQYENYPLTFGQGTKVEIKR
B4: hu20D12.v2.2 Fab (Fab, V domains shown)
VH: EVQLVQSGAEVKKPGASVKVSCKASGYTFTSYYMYWVRQAPGQGLEWIGEINPTSGDTNFNEKFKSRATLTVDTSTSTAYLELSSLRSEDTAVYYCAREGGFAYWGQGTLVTVSS
VL: DIQMTQSPSSLSASVGDRVTITCKASQNVDTDVAWFQQKPGKAPKGLIYSASSRYSGVPSRFSGSGSGTDFTLTISSLQPEDFATYYCQQYNNYPLTFGQGTKVEIKR
B5: hu20D12.v2.7 Fab (Fab, V domains shown)
VH: EVQLVQSGAEVKKPGASVKVSCKASGYTFTSYYMYWVRQAPGQGLEWIGEINPTSGGTNFNEKFKSRATLTVDTSTSTAYLELSSLRSEDTAVYYCAREGGFAYWGQGTLVTVSS
VL: DIQMTQSPSSLSASVGDRVTITCKASQNVDTDVAWFQQKPGKAPKGLIKSASSRYSGVPSRFSGSGSGTDFTLTISSLQPEDFATYYCQQYNNYPLTFGQGTKVEIKR
B6: hu20D12.v2.3 Fab (Fab, V domains shown)
VH: EVQLVQSGAEVKKPGASVKVSCKASGYTFTSYYMYWVRQAPGQGLEWIGEINPYSGDTNFNEKFKSRATLTVDTSTSTAYLELSSLRSEDTAVYYCAREGGFAYWGQGTLVTVSS
VL: DIQMTQSPSSLSASVGDRVTITCKASQNVDTDVAWFQQKPGKAPKGLIRSASSRYSGVPSRFSGSGSGTDFTLTISSLQPEDFATYYCQQYNNYPLTFGQGTKVEIKR
B7: hu20D12.v2.10 Fab (Fab, V domains shown)
VH: EVQLVQSGAEVKKPGASVKVSCKASGYTFTSYYMYWVRQAPGQGLEWIGEINPTSGGTNFNEKFKSRATLTVDTSTSTAYLELSSLRSEDTAVYYCAREGGFAYWGQGTLVTVSS
VL: DIQMTQSPSSLSASVGDRVTITCKASQNVDTDVAWFQQKPGKAPKGLIYSASSRKSGVPSRFSGSGSGTDFTLTISSLQPEDFATYYCQQYNNYPLTFGQGTKVEIKR
B8: hu20D12.v2.8 Fab (Fab, V domains shown)
VH: EVQLVQSGAEVKKPGASVKVSCKASGYTFTSYYMYWVRQAPGQGLEWIGEINPTSGGTNFNEKFKSRATLTVDTSTSTAYLELSSLRSEDTAVYYCAREGGFAYWGQGTLVTVSS
VL: DIQMTQSPSSLSASVGDRVTITCKASQNVDTDVAWFQQKPGKAPKGLIQSASSRYSGVPSRFSGSGSGTDFTLTISSLQPEDFATYYCQQYNNYPLTFGQGTKVEIKR
B9: hu20D12.v2.11 Fab (Fab, V domains shown)
VH: EVQLVQSGAEVKKPGASVKVSCKASGYTFTSYYMYWVRQAPGQGLEWIGEINPTSGGTNFNEKFKSRATLTVDTSTSTAYLELSSLRSEDTAVYYCAREGGFAYWGQGTLVTVSS
VL: DIQMTQSPSSLSASVGDRVTITCKASQNVDTDVAWFQQKPGKAPKGLIYSASSRRSGVPSRFSGSGSGTDFTLTISSLQPEDFATYYCQQYNNYPLTFGQGTKVEIKR
B10: hu20D12.v2.15 Fab (Fab, V domains shown)
VH: EVQLVQSGAEVKKPGASVKVSCKASGYTFTSYYMYWVRQAPGQGLEWIGEINPYSGETNFNEKFKSRATLTVDTSTSTAYLELSSLRSEDTAVYYCAREGGFAYWGQGTLVTVSS
VL: DIQMTQSPSSLSASVGDRVTITCKASQNVDTDVAWFQQKPGKAPKGLIRSASSRYSGVPSRFSGSGSGTDFTLTISSLQPEDFATYYCQQYNNYPLTFGQGTKVEIKR
B11: hu20D12.v2.9 Fab (Fab, V domains shown)
VH: EVQLVQSGAEVKKPGASVKVSCKASGYTFTSYYMYWVRQAPGQGLEWIGWINPTSGGTNFNEKFKSRATLTVDTSTSTAYLELSSLRSEDTAVYYCAREGGFAYWGQGTLVTVSS
VL: DIQMTQSPSSLSASVGDRVTITCKASQNVDTDVAWFQQKPGKAPKGLIYSASSRYSGVPSRFSGSGSGTDFTLTISSLQPEDFATYYCQQYNNYPLTFGQGTKVEIKR
B12: hu20D12.v2.12 Fab (Fab, V domains shown)
VH: EVQLVQSGAEVKKPGASVKVSCKASGYTFTSYYMYWVRQAPGQGLEWIGEINPYSGGTNFNEKFKSRATLTVDTSTSTAYLELSSLRSEDTAVYYCAREGGFAYWGQGTLVTVSS
VL: DIQMTQSPSSLSASVGDRVTITCKASQNVDTDVAWFQQKPGKAPKGLIRSASSRYSGVPSRFSGSGSGTDFTLTISSLQPEDFATYYCQQYNNYPLTFGQGTKVEIKR
B13: hu20D12.v2.6 Fab (Fab, V domains shown)
VH: EVQLVQSGAEVKKPGASVKVSCKASGYTFTSYYMYWVRQAPGQGLEWIGEINPTSGGTNFNEKFKSRATLTVDTSTSTAYLELSSLRSEDTAVYYCAREGGFAYWGQGTLVTVSS
VL: DIQMTQSPSSLSASVGDRVTITCKASQNVDTDVAWFQQKPGKAPKGLISSASSRYSGVPSRFSGSGSGTDFTLTISSLQPEDFATYYCQQYNNYPLTFGQGTKVEIKR
B14: hu20D12.v2.4 Fab (Fab, V domains shown)
VH: EVQLVQSGAEVKKPGASVKVSCKASGYTFTSYYMYWVRQAPGQGLEWIGEINPTSGETNFNEKFKSRATLTVDTSTSTAYLELSSLRSEDTAVYYCAREGGFAYWGQGTLVTVSS
VL: DIQMTQSPSSLSASVGDRVTITCKASQNVDTDVAWFQQKPGKAPKGLIYSASSRYSGVPSRFSGSGSGTDFTLTISSLQPEDFATYYCQQYNNYPLTFGQGTKVEIKR
B15: hu20D12.v2.0 Fab (Fab, V domains shown)
VH: EVQLVQSGAEVKKPGASVKVSCKASGYTFTSYYMYWVRQAPGQGLEWIGEINPTSGGTNFNEKFKSRATLTVDTSTSTAYLELSSLRSEDTAVYYCAREGGFAYWGQGTLVTVSS
VL: DIQMTQSPSSLSASVGDRVTITCKASQNVDTDVAWFQQKPGKAPKGLIYSASSRYSGVPSRFSGSGSGTDFTLTISSLQPEDFATYYCQQYNNYPLTFGQGTKVEIKR
notes: Fab expressed in E. coli; also called Hu20D12.v1.N54S; hu20D12.v1.N54S
B16: hu20D12.v1 IgG (antibody, V domains shown)
VH: EVQLVQSGAEVKKPGASVKVSCKASGYTFTSYYMYWVRQAPGQGLEWIGEINPTNGGTNFNEKFKSRATLTVDTSTSTAYLELSSLRSEDTAVYYCAREGGFAYWGQGTLVTVSS
VL: DIQMTQSPSSLSASVGDRVTITCKASQNVDTDVAWFQQKPGKAPKGLIYSASSRYSGVPSRFSGSGSGTDFTLTISSLQPEDFATYYCQQYNNYPLTFGQGTKVEIK
notes: Expressed as full length IgG in CHO cells
B17: hu20D12.v2.1 Fab (Fab, V domains shown)
VH: EVQLVQSGAEVKKPGASVKVSCKASGYTFTSYYMYWVRQAPGQGLEWIGEINPTSGGTNFNEKFKSRATLTVDTSTSTAYLELSSLRSEDTAVYYCAREGGFAYWGQGTLVTVSS
VL: DIQMTQSPSSLSASVGDRVTITCKASQNVDTDVAWFQQKPGKAPKGLIRSASSRYSGVPSRFSGSGSGTDFTLTISSLQPEDFATYYCQQYNNYPLTFGQGTKVEIKR

Target: Human complement Factor D, mature (human) (UniProt P00746)
Experiment: SPR, Fab captured by anti-huFab, human Factor D injected

binding, binds:
B1
B2
B3
B4
B5
B6
B7
B8
B9
B10
B11
B12
B13
B14

Target: Human complement Factor D, mature (human) (UniProt P00746)
Experiment: 1:1 complex purified on Superdex 200 and crystallised, 2.9 A data set

binding, binds:
B15

Target: Human complement Factor D, mature (human, UniProt P00746 27-253)
Experiment: SPR, IgG format

binding, binds:
B16

Target: Human complement Factor D, mature (human) (UniProt P00746)
Experiment: SPR, Fab captured by anti-huFab

binding, binds:
B15

Target: Human complement Factor D, mature (human) (UniProt P00746)
Experiment: Biacore after sustained delivery stress, 37 C, 4 weeks

binding, binds:
B15

Target: Human complement Factor D, mature (human) (UniProt P00746)
Experiment: antigen binding after sustained delivery stress, 37 C, 4 weeks

binding, binds:
B17
